Experimental data taken from article PMC10535696.
Results are given in words; binding and its absence hold for the method and conditions named. Binding seen in cells or lysates may run through a third protein. Some results given as binding are weak or reduced against the parent protein; the word gives no strength.

The chains behind the UniProt entries cited, without tags or fusion partners.
UniProt Q14790: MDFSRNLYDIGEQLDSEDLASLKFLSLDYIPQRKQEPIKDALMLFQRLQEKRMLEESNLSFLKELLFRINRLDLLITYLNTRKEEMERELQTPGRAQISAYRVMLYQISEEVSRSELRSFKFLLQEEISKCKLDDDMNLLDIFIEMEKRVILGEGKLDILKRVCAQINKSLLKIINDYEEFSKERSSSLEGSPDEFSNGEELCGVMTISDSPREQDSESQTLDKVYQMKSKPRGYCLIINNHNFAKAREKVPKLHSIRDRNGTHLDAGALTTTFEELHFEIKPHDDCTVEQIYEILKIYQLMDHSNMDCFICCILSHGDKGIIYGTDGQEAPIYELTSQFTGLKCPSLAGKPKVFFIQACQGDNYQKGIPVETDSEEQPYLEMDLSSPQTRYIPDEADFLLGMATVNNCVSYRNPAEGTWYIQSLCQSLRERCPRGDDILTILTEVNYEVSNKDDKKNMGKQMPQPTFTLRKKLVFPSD
UniProt Q9ULZ3: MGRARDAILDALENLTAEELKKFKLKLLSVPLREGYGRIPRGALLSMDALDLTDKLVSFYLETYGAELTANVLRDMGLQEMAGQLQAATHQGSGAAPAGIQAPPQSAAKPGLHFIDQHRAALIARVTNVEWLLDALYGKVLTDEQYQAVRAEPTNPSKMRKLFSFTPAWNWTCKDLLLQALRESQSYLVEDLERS
UniProt Q9Y572: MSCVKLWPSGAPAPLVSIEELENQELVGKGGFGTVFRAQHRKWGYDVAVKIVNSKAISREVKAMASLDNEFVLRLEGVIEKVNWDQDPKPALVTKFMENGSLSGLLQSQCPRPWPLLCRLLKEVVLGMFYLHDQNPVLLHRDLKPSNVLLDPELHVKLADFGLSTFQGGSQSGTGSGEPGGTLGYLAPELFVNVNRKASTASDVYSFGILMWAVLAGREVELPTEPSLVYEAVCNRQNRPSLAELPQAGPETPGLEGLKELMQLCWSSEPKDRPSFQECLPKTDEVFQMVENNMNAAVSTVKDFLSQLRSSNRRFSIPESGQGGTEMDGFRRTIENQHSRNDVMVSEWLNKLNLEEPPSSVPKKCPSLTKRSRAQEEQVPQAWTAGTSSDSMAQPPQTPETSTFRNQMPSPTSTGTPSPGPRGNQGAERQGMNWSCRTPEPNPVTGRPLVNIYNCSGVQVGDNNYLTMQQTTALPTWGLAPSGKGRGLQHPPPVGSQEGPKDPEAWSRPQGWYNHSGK

Biological target: Caspase 8 (human (endogenous in LY1 and LY3)) (UniProt Q14790)
Assay: co-IP; lysates (RIPA buffer) of LY1 and LY3 cells transfected with LV-STING; anti-CASP8 mouse antibody or normal mouse IgG overnight at 4 C, protein A/G PLUS-agarose beads 4 hours at 4 C; immunoblot

Substance: apoptosis-associated speck-like protein containing CARD (from UniProt Q9ULZ3 1-195)
- binding: binds

Substance: receptor-interacting protein kinase 3 (from UniProt Q9Y572 1-518)
- binding: binds
